Data reported in PMC5103873.
These are yes or no findings as the source states them, for the method shown. Binding seen in cells or lysates may run through a third protein. Some results given as binding are weak or reduced against the parent protein; the word gives no strength.

The chains behind the UniProt entries cited, without tags or fusion partners. Where a name states a change or a piece, a line headed by the entry shows the natural chain unless it says otherwise. A line that says so, or that is headed by a name, gives the form on record, which may keep a tag or linker. Residues count along the entry.
parathyroid hormone receptor 1 (PTH1R) wild type, N-terminally HA-tagged, C-terminally eYFP-labelled (Q03431, residues 27-593): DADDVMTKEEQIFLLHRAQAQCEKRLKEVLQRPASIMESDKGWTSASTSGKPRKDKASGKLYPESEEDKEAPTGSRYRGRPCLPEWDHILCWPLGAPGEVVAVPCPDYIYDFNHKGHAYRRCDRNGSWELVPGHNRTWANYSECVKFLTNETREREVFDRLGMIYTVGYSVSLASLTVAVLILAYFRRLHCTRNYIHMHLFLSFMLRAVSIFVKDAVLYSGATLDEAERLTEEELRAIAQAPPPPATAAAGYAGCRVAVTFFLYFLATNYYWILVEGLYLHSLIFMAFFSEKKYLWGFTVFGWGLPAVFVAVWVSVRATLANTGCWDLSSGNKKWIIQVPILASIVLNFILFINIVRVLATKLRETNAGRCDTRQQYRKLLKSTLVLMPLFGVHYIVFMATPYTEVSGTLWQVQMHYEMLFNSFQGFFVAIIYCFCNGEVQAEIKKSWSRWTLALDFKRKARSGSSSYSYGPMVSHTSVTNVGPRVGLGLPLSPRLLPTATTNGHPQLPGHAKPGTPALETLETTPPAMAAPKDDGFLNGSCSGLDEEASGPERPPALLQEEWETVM
PTH1R PD2 mutant (all serine/threonine residues of cluster 2, S501–T506, to alanine), HA- and eYFP-tagged (Q03431, form named): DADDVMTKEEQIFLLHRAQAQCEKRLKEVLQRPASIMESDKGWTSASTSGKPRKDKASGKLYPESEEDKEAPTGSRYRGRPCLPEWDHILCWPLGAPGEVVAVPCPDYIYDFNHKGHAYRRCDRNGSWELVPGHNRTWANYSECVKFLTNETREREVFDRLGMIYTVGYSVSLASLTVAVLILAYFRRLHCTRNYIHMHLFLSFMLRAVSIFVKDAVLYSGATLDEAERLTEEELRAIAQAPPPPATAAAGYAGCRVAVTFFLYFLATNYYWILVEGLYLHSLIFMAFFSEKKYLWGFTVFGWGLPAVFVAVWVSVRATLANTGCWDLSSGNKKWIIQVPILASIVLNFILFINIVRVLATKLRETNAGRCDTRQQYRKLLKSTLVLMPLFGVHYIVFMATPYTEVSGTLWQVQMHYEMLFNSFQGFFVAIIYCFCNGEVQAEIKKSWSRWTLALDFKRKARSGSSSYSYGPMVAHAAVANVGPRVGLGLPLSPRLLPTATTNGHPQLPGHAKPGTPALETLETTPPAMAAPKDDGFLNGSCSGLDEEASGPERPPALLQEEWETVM
PTH1R PD1 mutant (all serine/threonine residues of cluster 1, S489–S495, to alanine), HA- and eYFP-tagged (Q03431, form named): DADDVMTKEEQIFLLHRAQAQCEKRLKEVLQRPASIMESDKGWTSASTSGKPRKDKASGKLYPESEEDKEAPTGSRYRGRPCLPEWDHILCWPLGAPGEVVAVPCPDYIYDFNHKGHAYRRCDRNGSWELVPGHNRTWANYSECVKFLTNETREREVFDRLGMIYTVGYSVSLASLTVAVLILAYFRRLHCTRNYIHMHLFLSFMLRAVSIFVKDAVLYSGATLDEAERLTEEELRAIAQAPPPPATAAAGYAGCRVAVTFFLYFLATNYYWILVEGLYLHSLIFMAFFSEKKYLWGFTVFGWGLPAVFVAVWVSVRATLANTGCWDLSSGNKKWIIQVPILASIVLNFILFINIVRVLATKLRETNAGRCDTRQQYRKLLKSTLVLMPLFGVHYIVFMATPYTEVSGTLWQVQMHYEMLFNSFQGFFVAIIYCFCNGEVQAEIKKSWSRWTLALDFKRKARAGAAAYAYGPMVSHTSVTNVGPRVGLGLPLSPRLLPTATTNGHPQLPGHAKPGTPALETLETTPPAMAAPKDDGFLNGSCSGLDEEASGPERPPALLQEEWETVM
PTH1R PD3 mutant (mutations of clusters 1 and 2 combined), HA- and eYFP-tagged (Q03431, form named): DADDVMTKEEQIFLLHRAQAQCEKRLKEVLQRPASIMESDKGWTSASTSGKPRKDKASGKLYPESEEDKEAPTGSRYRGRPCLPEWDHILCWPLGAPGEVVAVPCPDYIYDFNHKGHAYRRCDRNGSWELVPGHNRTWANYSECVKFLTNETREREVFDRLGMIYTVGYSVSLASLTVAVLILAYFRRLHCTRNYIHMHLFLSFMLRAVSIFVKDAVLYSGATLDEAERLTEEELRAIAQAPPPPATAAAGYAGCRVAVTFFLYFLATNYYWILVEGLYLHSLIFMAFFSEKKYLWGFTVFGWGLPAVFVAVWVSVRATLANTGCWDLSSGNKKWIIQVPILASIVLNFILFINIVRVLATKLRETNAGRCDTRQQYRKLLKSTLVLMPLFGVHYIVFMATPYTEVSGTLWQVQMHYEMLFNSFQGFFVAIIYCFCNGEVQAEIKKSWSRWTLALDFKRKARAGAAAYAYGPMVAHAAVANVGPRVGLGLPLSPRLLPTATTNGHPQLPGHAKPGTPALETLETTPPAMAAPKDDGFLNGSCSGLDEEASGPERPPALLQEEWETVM

How the values were obtained:
Test in all cases: FRET or BRET; BRET donor/acceptor titration in HEK293 cells; fixed amount of arrestin3–Rluc, increasing amounts of receptor–eYFP; net BRET induced by 1 µM PTH(1–34); one-site binding fit
[1] = biological target: PTH1R PD2 mutant (all serine/threonine residues of cluster 2, S501–T506, to alanine), HA- and eYFP-tagged (human) (UniProt Q03431)
[2] = biological target: PTH1R PD1 mutant (all serine/threonine residues of cluster 1, S489–S495, to alanine), HA- and eYFP-tagged (human) (UniProt Q03431)
[3] = biological target: parathyroid hormone receptor 1 (PTH1R) wild type, N-terminally HA-tagged, C-terminally eYFP-labelled (human) (UniProt Q03431)
[4] = biological target: PTH1R PD3 mutant (mutations of clusters 1 and 2 combined), HA- and eYFP-tagged (human) (UniProt Q03431)

Measured: binding

arrestin3–Renilla luciferase (Rluc) (from UniProt P32121 1-409)
binds: [1] | [2] | [3] | [4]
